Data reported in US4705786A, “Novel oxadiazolyl-1,4-dihydropyridines useful as antihypertensive agents” (Sumitomo Pharmaceuticals Company, Limited, priority 1984, dated 1987).

Test system: isolated rabbit aortic strip
Assay: inhibition of norepinephrine-induced contractions of isolated rabbit aortic strip potentiated by ouabain
Type: cell-based
Settings: Oryctolagus cuniculus, read-out: concentration at which norepinephrine-induced contractions are inhibited

COC(=O)C1=C(C)NC(C)=C(C(=O)OC)C1c1ccccc1[N+](=O)[O-] [Compound R2, Dimethyl 1,4-dihydro-2,6-dimethyl-4-(2-nitrophenyl)-3,5-dicarboxylate, reference compound]
minimal effective concentration: > 0.1 µM
